No constants are given. Whether binding was seen depends on the method and setting. Binding seen in cells or lysates may run through a third protein. Here binding means that the protein was enriched with, or labelled near, the bait; the list need not be complete.
Target: T1, IBV M41 spike protein (infectious bronchitis virus (IBV) strain M41) (UniProt P12651)
T1 sequence: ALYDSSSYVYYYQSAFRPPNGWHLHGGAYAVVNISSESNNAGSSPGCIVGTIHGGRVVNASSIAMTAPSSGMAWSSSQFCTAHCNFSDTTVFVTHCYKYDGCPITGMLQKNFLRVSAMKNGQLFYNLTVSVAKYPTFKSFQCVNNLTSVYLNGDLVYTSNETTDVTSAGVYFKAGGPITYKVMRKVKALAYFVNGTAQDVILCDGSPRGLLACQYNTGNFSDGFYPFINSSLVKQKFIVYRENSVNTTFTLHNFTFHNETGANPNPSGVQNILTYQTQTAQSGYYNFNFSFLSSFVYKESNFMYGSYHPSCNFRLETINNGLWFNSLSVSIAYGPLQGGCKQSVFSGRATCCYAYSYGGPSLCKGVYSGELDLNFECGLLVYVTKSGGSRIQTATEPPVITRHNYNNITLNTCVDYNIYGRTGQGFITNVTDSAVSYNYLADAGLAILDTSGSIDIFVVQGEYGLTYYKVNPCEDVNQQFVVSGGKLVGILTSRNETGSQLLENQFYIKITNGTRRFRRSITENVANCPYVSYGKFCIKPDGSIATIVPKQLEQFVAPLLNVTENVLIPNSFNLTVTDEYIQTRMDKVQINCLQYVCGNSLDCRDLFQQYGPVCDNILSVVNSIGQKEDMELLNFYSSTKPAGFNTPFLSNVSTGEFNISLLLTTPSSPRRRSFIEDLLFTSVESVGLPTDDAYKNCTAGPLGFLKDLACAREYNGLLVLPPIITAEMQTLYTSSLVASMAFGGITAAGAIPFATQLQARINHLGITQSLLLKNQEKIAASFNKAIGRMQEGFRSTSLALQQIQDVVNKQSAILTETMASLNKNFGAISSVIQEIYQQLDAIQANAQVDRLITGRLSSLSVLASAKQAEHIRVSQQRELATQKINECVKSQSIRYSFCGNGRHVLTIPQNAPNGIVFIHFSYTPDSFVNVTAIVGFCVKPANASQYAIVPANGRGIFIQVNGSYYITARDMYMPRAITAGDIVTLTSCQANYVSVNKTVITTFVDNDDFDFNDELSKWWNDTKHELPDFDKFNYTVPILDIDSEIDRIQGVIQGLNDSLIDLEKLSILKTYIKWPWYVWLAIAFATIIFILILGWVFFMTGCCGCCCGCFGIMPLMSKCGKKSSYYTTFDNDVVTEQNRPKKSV
Assay: affinity purification with mass spectrometry; membrane protein extracts of IBV M41-infected CEK cells immunoprecipitated with mAb 1H1 to spike protein or mouse IgG; silver staining; the specific 70 kDa band analysed by LC-MS/MS

Chains of the proteins cited; added tags and fusions are not shown.
UniProt O73885: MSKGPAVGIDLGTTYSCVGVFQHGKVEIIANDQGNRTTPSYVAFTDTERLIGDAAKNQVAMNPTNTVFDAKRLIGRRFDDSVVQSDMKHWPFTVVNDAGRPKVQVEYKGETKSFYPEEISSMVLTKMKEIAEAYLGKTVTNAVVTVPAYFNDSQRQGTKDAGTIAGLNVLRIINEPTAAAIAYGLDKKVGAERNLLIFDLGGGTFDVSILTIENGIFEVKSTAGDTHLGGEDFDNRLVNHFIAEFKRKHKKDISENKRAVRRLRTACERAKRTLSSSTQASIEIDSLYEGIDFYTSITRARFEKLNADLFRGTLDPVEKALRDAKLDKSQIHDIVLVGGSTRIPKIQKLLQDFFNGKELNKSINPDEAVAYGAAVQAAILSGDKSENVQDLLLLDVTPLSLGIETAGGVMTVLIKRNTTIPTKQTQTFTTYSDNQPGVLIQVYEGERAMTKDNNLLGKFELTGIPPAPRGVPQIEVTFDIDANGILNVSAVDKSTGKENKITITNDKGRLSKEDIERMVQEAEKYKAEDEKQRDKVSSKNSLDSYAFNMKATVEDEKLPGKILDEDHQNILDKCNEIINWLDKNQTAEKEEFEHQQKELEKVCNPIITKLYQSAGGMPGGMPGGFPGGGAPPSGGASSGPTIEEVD

Substance: heat shock protein member 8 (HSPA8), chicken, endogenous (from UniProt O73885 1-646)
- binding: binds

Source: paper PMC7381282
